Cleaved PARP after 72 h of treatment

Values as published with doi:10.1371/journal.pone.0140310, rounded.

First drug in all entries: dasatinib, 0.02 µM, Cc1nc(Nc2ncc(C(=O)Nc3c(C)cccc3Cl)s2)cc(N2CCN(CCO)CC2)n1

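Human melanoma cell lines in 1,536-well plates were treated with a pair of drugs for 72 h, then fixed, stained and imaged. Values are the share of nuclei positive for cleaved PARP as a percentage of the same share in the DMSO control: 100 is the control level, higher means more apoptosis. Concentrations were fixed for each drug; these are the higher of two levels. The file gives one value for each pair and line, without errors, so small differences may be noise. The marker varies much from line to line, for technical or biological reasons.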 An unselected part of the screen is shown. An entry leaves out what has no value listed here. A dash means that no value is listed here.

| Second drug | SK-MEL-2 | WM3619 | MZ2-MEL | A101D | WM3526 | WM1716 | LB2518-MEL | 501mel | WM1745 | C32 |
|---|---|---|---|---|---|---|---|---|---|---|
| NC(=O)Nc1cc(-c2cccc(F)c2)sc1C(=O)N[C@H]1CCCNC1 at 0.1 µM | - | 427 | - | 315 | 1280 | 1210 | - | - | 206 | 831 |
| C=C(c1ccc(C(=O)O)cc1)c1cc2c(cc1C)C(C)(C)CCC2(C)C at 10 µM | 53.0 | 109 | 642 | 77.3 | 166 | 94.3 | 67.0 | - | 420 | 799 |
| Nc1nc(F)nc2c1ncn2[C@@H]1O[C@H](CO)[C@@H](O)[C@@H]1O at 1 µM | 13900 | 124 | 198 | 275 | 4160 | 114 | 291 | - | 162 | 781 |
| O=S(=O)(c1ccccc1)N(CC(F)(F)F)c1ccc(C(O)(C(F)(F)F)C(F)(F)F)cc1 at 7 µM | 18600 | 189 | 263 | 129 | 133 | 155 | 292 | 65.1 | 383 | 161 |
| Cn1cc(/C=C2\C(=O)Nc3cccnc32)c2ccccc21 at 2 µM | 116 | 118 | - | 98.7 | 103 | 197 | - | - | 266 | 128 |
| C[C@]1(O)C[C@@H](c2nc(-c3ccc4ccc(-c5ccccc5)nc4c3)c3c(N)nccn32)C1 at 2 µM | 94.0 | 131 | 94.2 | 58.1 | 113 | 330 | 30.4 | - | 386 | 1010 |
| N#CC[C@H](C1CCCC1)n1cc(-c2ncnc3[nH]ccc23)cn1 at 5 µM | 88.3 | 147 | 204 | 139 | 136 | 841 | 179 | - | 360 | 377 |
| Cc1cc(Nc2cc(N3CCN(C)CC3)nc(/C=C/c3ccccc3)n2)n[nH]1 at 0.2 µM | 124 | 93.3 | 159 | 203 | 98.4 | 80.7 | 183 | - | 156 | 1680 |
| O=C(O)c1ccc(-c2c[nH]c3ncc(-c4ccccc4)cc23)cc1C1CCCC1 at 0.8 µM | 94.3 | 122 | 309 | 220 | 135 | 262 | 144 | - | 1060 | 985 |
| Cc1cc(SCc2sc(-c3ccc(C(F)(F)F)c(F)c3)nc2C)ccc1OCC(=O)O at 10 µM | 106 | 124 | 307 | 121 | 64.8 | 164 | 76.5 | 56.2 | 224 | 145 |
| CC(C)C[C@H](NC(=O)[C@H](Cc1ccccc1)NC(=O)c1cnccn1)B(O)O at 0.005 µM | 296 | 4420 | 16000 | 343 | 2180 | 10300 | 1890 | - | 574 | 1060 |
| CCCCCCCCCCCCCCCCCCOP(=O)([O-])OC1CC[N+](C)(C)CC1 at 2 µM | 102 | 97.8 | 142 | 175 | 79.8 | 154 | 73.3 | - | 217 | 978 |
| CN1CCN(c2ccc3nc(-c4c(N)c5c(F)cccc5[nH]c4=O)[nH]c3c2)CC1 at 0.5 µM | 413 | 144 | 600 | 138 | 166 | 121 | 417 | - | 380 | 130 |
| Cn1nnc2c(C(N)=O)ncn2c1=O at 10 µM | 98.7 | 110 | 79.2 | 99.2 | 99.8 | 956 | 162 | - | 231 | 375 |
| CCN(CC)CCNC(=O)c1c(C)[nH]c(/C=C2\C(=O)Nc3ccc(F)cc32)c1C at 2 µM | 106 | 114 | 183 | 112 | 405 | 109 | 89.2 | - | 390 | 193 |

The last 2 entries again:

{"second drug": "Cn1nnc2c(C(N)=O)ncn2c1=O at 10 µM", "SK-MEL-2": 98.7, "WM3619": 110, "MZ2-MEL": 79.2, "A101D": 99.2, "WM3526": 99.8, "WM1716": 956, "LB2518-MEL": 162, "WM1745": 231, "C32": 375}
{"second drug": "CCN(CC)CCNC(=O)c1c(C)[nH]c(/C=C2\\C(=O)Nc3ccc(F)cc32)c1C at 2 µM", "SK-MEL-2": 106, "WM3619": 114, "MZ2-MEL": 183, "A101D": 112, "WM3526": 405, "WM1716": 109, "LB2518-MEL": 89.2, "WM1745": 390, "C32": 193}